# Measured values as given in the supplement of paper PMC10849652.
# Chains of the proteins cited; added tags and fusions are not shown. Lines headed by an entry give the natural chain unless they say otherwise; changes in a name come on top.
# UniProt Q96JP0: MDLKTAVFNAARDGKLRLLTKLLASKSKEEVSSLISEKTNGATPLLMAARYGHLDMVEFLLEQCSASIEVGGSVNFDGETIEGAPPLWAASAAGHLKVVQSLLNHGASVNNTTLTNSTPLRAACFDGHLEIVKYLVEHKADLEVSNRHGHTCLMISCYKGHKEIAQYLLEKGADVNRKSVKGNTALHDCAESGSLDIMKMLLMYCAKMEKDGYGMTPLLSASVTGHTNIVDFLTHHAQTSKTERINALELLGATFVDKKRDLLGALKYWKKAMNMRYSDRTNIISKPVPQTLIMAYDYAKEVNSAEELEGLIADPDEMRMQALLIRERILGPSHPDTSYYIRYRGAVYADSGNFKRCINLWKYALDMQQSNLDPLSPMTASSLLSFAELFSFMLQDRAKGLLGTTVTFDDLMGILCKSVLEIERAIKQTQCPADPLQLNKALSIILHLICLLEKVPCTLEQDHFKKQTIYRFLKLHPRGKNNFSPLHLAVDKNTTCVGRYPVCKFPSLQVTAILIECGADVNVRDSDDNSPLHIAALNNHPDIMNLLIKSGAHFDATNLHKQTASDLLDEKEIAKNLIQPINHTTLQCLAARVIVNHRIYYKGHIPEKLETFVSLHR
# UniProt Q4L180: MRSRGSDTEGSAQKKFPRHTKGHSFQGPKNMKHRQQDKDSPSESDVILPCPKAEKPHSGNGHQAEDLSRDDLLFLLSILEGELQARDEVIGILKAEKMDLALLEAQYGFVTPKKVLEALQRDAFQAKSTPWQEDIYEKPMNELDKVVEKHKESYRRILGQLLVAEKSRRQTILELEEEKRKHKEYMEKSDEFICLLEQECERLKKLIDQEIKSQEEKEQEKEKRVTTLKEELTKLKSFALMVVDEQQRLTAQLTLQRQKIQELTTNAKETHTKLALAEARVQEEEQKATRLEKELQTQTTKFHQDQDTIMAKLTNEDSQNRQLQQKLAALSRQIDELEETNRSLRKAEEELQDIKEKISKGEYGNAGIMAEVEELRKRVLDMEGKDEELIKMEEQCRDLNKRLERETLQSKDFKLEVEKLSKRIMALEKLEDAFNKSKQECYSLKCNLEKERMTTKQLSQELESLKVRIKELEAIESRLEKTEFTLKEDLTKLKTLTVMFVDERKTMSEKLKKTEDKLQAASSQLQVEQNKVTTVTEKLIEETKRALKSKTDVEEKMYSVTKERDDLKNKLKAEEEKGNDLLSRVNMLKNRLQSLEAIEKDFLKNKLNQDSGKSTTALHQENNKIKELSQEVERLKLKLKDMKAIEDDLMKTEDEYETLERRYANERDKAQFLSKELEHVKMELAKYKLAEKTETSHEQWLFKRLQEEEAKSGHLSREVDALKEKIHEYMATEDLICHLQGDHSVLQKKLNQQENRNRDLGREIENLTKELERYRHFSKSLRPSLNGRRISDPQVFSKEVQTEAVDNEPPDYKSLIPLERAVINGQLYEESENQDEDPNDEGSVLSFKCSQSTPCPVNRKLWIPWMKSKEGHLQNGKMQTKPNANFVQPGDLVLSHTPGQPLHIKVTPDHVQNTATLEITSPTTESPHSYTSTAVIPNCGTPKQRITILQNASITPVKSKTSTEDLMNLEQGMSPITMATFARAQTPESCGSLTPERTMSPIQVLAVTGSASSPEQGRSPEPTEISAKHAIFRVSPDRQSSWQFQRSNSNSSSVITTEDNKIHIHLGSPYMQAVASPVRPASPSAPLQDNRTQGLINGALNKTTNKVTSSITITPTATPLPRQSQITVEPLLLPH
# UniProt Q53R41: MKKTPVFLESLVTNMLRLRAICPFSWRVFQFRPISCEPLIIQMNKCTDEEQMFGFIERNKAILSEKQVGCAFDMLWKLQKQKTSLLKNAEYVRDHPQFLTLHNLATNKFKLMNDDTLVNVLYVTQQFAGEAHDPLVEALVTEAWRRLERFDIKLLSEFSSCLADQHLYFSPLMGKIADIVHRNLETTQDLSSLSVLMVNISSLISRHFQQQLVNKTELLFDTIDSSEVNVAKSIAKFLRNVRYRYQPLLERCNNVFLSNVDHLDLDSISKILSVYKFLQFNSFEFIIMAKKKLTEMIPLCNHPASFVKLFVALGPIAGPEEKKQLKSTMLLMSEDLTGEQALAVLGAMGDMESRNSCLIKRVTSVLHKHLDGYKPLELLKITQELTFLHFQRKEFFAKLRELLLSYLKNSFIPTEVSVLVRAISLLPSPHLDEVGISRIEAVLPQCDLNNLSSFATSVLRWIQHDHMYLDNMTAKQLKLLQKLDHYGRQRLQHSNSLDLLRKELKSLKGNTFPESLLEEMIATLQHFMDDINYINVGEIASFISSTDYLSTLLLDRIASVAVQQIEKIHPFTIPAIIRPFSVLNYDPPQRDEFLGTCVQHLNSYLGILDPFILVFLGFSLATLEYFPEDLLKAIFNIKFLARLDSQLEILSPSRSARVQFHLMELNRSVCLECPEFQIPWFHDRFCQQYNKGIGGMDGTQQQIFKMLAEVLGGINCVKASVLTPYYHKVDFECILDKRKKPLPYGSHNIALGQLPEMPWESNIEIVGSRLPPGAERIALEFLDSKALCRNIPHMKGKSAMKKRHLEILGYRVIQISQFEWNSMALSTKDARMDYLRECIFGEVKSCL
# UniProt Q9H469: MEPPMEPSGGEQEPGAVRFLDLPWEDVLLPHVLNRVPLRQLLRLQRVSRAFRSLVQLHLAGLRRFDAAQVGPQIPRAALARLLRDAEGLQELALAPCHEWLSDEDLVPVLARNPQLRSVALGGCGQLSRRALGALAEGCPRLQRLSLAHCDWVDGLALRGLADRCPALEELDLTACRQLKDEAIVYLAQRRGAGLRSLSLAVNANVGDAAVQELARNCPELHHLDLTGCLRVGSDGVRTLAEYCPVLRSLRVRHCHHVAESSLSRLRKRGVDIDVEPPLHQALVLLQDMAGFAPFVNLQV
# UniProt P15407: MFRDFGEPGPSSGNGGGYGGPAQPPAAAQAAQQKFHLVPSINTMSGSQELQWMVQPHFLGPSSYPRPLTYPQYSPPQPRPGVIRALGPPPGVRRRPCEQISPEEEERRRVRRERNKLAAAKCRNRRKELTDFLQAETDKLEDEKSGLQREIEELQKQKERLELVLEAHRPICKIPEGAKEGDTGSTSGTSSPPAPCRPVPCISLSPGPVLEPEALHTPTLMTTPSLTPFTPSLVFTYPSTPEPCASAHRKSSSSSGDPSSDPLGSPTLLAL
# UniProt Q96IV6: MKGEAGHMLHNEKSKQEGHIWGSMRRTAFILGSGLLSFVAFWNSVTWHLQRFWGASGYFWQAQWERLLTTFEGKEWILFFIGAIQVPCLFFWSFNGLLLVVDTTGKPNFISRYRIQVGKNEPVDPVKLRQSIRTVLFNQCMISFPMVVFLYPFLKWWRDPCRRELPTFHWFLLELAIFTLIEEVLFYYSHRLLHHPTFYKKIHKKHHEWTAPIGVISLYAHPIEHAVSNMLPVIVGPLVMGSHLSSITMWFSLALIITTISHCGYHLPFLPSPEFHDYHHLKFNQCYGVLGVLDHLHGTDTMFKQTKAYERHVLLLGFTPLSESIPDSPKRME
# UniProt Q4VC44: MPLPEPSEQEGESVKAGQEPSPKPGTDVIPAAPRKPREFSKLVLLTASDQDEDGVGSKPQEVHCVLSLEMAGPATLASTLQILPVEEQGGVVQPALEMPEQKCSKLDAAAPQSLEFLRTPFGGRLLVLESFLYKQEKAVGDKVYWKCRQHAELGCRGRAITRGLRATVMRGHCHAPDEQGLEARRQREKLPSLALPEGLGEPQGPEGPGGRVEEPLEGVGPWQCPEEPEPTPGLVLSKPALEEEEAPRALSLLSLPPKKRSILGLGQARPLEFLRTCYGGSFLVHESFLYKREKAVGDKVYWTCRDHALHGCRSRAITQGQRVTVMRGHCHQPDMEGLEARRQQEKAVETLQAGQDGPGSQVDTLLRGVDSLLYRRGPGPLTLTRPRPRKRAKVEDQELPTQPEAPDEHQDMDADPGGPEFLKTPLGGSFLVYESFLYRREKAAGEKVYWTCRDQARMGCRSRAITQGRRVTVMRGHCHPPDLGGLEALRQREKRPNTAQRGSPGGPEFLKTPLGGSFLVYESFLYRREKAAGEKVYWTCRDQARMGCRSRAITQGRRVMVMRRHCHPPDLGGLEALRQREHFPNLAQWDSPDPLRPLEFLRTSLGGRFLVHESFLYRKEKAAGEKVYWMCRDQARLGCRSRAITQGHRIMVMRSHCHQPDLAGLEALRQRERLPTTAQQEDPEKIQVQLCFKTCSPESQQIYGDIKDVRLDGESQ
# UniProt Q9HB96: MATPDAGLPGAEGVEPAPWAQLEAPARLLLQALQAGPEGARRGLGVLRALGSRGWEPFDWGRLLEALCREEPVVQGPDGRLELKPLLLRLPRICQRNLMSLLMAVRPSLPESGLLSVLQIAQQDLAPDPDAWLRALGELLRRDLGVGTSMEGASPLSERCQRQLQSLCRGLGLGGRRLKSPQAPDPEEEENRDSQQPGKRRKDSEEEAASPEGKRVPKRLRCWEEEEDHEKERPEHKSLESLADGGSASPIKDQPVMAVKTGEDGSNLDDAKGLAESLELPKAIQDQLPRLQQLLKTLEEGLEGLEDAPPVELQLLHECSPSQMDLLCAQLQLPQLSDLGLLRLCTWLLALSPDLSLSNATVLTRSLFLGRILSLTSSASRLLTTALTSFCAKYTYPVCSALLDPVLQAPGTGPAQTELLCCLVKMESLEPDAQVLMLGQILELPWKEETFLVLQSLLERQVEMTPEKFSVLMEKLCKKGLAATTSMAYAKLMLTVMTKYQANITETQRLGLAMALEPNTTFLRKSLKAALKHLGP
# UniProt O15287: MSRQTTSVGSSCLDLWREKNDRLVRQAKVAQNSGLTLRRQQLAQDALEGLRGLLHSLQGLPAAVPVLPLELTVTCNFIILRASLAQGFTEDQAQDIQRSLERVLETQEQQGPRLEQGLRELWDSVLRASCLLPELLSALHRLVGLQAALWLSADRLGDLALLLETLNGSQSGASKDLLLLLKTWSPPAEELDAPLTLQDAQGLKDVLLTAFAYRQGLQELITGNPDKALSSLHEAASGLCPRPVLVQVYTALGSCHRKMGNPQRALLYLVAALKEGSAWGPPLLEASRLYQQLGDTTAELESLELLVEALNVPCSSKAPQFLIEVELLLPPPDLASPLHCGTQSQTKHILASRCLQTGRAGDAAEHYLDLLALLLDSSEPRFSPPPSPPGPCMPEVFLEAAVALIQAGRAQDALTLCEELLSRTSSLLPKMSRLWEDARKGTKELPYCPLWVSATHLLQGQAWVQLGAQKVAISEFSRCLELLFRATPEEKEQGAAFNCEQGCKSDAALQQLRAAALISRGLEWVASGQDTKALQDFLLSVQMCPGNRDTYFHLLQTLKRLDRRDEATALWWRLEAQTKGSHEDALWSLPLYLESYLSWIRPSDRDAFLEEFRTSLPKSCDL
# UniProt Q7Z6M2: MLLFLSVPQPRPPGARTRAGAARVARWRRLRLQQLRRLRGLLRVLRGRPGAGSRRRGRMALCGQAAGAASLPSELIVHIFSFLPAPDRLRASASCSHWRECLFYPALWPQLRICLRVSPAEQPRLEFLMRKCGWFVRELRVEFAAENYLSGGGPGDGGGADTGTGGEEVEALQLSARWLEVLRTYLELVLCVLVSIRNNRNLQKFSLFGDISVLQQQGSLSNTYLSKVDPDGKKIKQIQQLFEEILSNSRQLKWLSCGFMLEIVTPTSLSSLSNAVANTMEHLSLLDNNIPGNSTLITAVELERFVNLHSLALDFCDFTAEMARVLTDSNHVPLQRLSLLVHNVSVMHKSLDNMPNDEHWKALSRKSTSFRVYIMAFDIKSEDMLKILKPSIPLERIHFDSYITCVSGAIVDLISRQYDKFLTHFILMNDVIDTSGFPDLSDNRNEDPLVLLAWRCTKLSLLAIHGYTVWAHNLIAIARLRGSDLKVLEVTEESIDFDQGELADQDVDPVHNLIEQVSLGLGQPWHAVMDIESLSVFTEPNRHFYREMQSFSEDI
# UniProt Q14CZ7: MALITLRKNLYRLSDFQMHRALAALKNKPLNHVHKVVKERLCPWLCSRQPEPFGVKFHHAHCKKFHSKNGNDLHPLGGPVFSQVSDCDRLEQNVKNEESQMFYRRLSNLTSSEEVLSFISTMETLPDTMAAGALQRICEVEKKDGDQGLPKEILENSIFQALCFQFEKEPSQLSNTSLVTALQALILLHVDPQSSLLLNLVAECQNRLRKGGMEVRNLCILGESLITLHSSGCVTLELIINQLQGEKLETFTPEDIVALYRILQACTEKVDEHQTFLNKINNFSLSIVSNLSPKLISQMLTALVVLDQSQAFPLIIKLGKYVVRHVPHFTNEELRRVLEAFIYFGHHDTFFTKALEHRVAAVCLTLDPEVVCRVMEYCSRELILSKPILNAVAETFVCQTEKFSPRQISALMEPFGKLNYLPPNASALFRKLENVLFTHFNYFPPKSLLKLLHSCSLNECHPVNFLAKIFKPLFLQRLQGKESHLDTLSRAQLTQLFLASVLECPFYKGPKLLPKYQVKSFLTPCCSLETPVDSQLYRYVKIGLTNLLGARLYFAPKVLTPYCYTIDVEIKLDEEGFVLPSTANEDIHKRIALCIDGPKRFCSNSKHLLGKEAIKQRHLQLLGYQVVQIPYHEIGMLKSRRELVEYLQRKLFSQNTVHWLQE
# The other results are listed elsewhere or left out.
# Compound: CC1=C(C2=C(C=C1)C(=O)C3=CC=CC=C3N2CCCN)C
# Test: log2 fold change, soluble protein after heating vs DMSO (PISA); higher = thermal stabilisation; K562 lysate, 10 uM; active = over 0.2 and 3.5 SD of the protein, either way, in both replicates (recomputed)
# Method in brief: (§1)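 Thermal stability, expressed as log-two fold change relative to solvent controls, is given from duplicates. Crude K562 extract in PBS pH 7.4 with 1 mM MgCl2, at 1 mg/mL protein, was treated with 10 μM compound for 30 min and heated in aliquots for 3 min across 48°C-58°C. After pooling, adjustment to 0.5% NP-40 at 4°C and centrifugation at 21,000xg for 90 min, supernatant protein was measured by TMTpro 16plex LC-MS/MS with channel sums equalised.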
row,Target,log2 fold change
1,FCHSD2 (UniProt O94868),inactive: 0.08
2,FEM1C (UniProt Q96JP0),inactive: -0.001
3,FKBP10 (UniProt Q96AY3),inactive: -0.275
4,FLNA (UniProt H0Y5C6),inactive: -0.122
5,FILIP1L (UniProt Q4L180),inactive: -0.061
6,FASTKD1 (UniProt Q53R41),inactive: -0.021
7,FBXL15 (UniProt Q9H469),inactive: -0.015
8,FOSL1 (UniProt P15407),inactive: 0.034
9,FCF1 (UniProt Q9Y324),inactive: -0.005
10,FANCA (UniProt O15360),inactive: -0.127
11,FAXDC2 (UniProt Q96IV6),inactive: -0.103
12,FLYWCH1 isoform 3 (UniProt Q4VC44),inactive: 0.114
13,FARP2 (UniProt H7C3M7),inactive: -0.081
14,FANCE (UniProt Q9HB96),inactive: -0.115

# Compound: CC1=C(C=C(C=C1)NC(=O)C2=CC(=CC=C2)C(C)(C)C#N)NC3=CC4=C(C=C3)N=CN(C4=O)C
# Test: as above
# Method in brief: as §1
row,Target,log2 fold change
1,FNDC3A (UniProt Q9Y2H6),inactive: 0.027
2,FGFR1OP2 isoform 2 (UniProt Q9NVK5),inactive: -0.004
3,FANCF (UniProt Q9NPI8),inactive: -0.1
4,FBXL19 (UniProt Q6PCT2),inactive: 0.078
5,FER isoform 3 (UniProt P16591),inactive: -0.207
6,FASTKD1 (UniProt Q53R41),inactive: 0.026
7,FBXL15 (UniProt Q9H469),inactive: 0.139
8,FOSL1 (UniProt P15407),inactive: 0.021
9,FAT1 (UniProt Q14517),inactive: 0.188
10,FCF1 (UniProt Q9Y324),inactive: -0.034
11,FCGR2B (UniProt P31994),inactive: -0.085
12,FMR1NB (UniProt Q8N0W7),inactive: -0.28
13,FANCA (UniProt O15360),inactive: 0.036
14,FAXDC2 (UniProt Q96IV6),inactive: 0.098
15,FLYWCH1 isoform 3 (UniProt Q4VC44),inactive: -0.232
16,FARP2 (UniProt H7C3M7),inactive: 0.008
17,FANCE (UniProt Q9HB96),inactive: -0.013
18,FANCG (UniProt O15287),inactive: 0.059

# Compound: CC1=C(C=C(C=C1)NC(=O)C2=CC(=CC=C2)N(C)C)NC(=O)C3=CC=C(C=C3)O
# Test: as above
# Method in brief: as §1
row,Target,log2 fold change
1,FNDC3A (UniProt Q9Y2H6),inactive: 0.113
2,FNTA (UniProt H0YCW1),inactive: -0.033
3,FBXO33 (UniProt Q7Z6M2),inactive: 0.112
4,FBXL4 (UniProt Q9UKA2),inactive: -0.021
5,FBXL19 (UniProt Q6PCT2),inactive: -0.223
6,FBXO28 (UniProt Q9NVF7),inactive: -0.007
7,FKBP10 (UniProt Q96AY3),inactive: 0.085
8,FILIP1L (UniProt Q4L180),inactive: -0.268
9,FASTKD1 (UniProt Q53R41),inactive: 0.065
10,FBXL15 (UniProt Q9H469),inactive: -0.142
11,FAT1 (UniProt Q14517),inactive: 0.024
12,FCGR2B (UniProt P31994),inactive: 0.014
13,FLYWCH1 isoform 3 (UniProt Q4VC44),inactive: 0.169
14,FEN1 (UniProt I3L3E9),inactive: 0.069
15,FARP2 (UniProt H7C3M7),inactive: -0.034
16,FANCG (UniProt O15287),inactive: 0.138

# Compound: CC1=CC=C(C=C1)SC2=C3C=C(SC3=CN=C2)C(=O)N
# Test: as above
# Method in brief: as §1
row,Target,log2 fold change
1,FLII isoform 2 (UniProt Q13045),inactive: 0.122
2,FASTKD3 (UniProt Q14CZ7),inactive: -0.181
3,FCHSD2 (UniProt O94868),inactive: -0.04
4,"FDPS, A0A087WVN4",inactive: 0.144
5,FBXO28 (UniProt Q9NVF7),inactive: 0.026
6,"FASN, A0A0U1RRG3",inactive: 0.206
7,FLNA (UniProt H0Y5C6),inactive: 0.01
8,FER isoform 3 (UniProt P16591),inactive: 0.184
9,FILIP1L (UniProt Q4L180),inactive: -0.186
10,FOSL1 (UniProt P15407),inactive: -0.081
11,FAT1 (UniProt Q14517),inactive: -0.105
12,FAXDC2 (UniProt Q96IV6),inactive: -0.274
13,FAM83H (UniProt Q6ZRV2),inactive: 0.07
14,FLYWCH1 isoform 3 (UniProt Q4VC44),inactive: -0.159
15,FEN1 (UniProt I3L3E9),inactive: 0.108
16,FANCE (UniProt Q9HB96),inactive: 0.045
